Source: publication PMC9532970, “Rational design of photosynthetic reaction center protein maquettes” (Frontiers in Molecular Biosciences, 2022)

Test system: RC maquette
Assay: UV/vis cofactor binding titration into RC maquette (no heme pre-bound)
Details: electron acceptor titrated into RC maquette, pH 7.0
Procedure: Ultraviolet/visible absorbance spectroscopy (UV/vis) was carried out on a Varian Cary-50 spectrophotometer. Cofactor binding titrations were performed at room temperature using 1 ml samples of ∼1 μM RC maquette in quartz cuvettes. Protein concentrations were calculated by assuming that Trp and Tyr residues have extinction coefficients at 280 nm (ε280nm) of 5,500 M^−1 cm^−1 and 1,490 M^−1 cm^−1, respectively. Samples of Zn 5-phenyl 15-(p-carboxyphenyl) porphyrin (ZnPCP) and Zn Newkome porphyrin were provided by Tatiana Esipova from the research group of Sergei Vinogradov ([Kodali et al., 2017]). The Zn chlorins SE370 and SE375 were produced by the laboratory of Jonathan Lindsey following previously established methods ([Aravindu et al., 2013]; [Kodali et al., 2017]). […] Heme B stock concentrations were measured by hemochrome assay ([Berry and Trumpower, 1987]). […]
In Eq. 2, A represents the total absorbance at a given wavelength, c tot is the total cofactor concentration, P tot is the total protein concentration, K D is the dissociation constant, εfree is the extinction coefficient of unbound cofactor in solution, εbound is the extinction coefficient of protein-bound cofactor, and b is the absorbance of the sample when c tot is zero.

SMILES | binding stoichiometry (cofactor per maquette)
C=Cc1c(C)c2cc3[nH]c(cc4nc(cc5nc(cc1[nH]2)C(C)=C5CCC(=O)[O-])C(CCC(=O)[O-])=C4C)c(C)c3C=C.[Co+2] [CoPPIX, Co(III) protoporphyrin IX] | 1.0
C=CC1=C(C)c2cc3[n-]c(cc4[n-]c(cc5nc(cc1n2)C(C)=C5C=C)c(C)c4CCC(=O)O)c(CCC(=O)O)c3C.[Fe+2] [heme B] | 1.0
